The values are deposited in ChEMBL (CHEMBL3988442, “University of Dundee, Small-Polar-MMV Screening Library” (2021)).

T. brucei: 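Whole-parasite assay of Trypanosoma brucei over 72 hours; the read-out is not stated. Tested at 30 µM. Higher reads as stronger inhibition (inferred: compounds with an IC50 in retests scored well above the rest). Values scatter widely below zero; nearly all retest evidence comes from the higher of the two concentrations used. About 64,000 compounds were tested under these conditions; 1.5% (about 940) showed 50% or more at least once.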
Toxoplasma: 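Assay of Toxoplasma gondii numbers, read through their beta-galactosidase reporter with a colour substrate. Concentration: 10 µM. Higher reads as fewer parasites (inferred from which compounds were picked for retests). Of about 67,000 compounds tested this way, about 260 (0.38%) reached 50% or more in at least one test.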

Each number is a percent effect as filed. The controls that fix the scale are not given in the record; negative values are as filed. Compounds were drawn at random from those tested, without regard to their results. A dash means the value is not listed here; it may have been measured.

structure | T. brucei | Toxoplasma
Cc1ccc(CNC(=O)CN2CCN(CC(O)C3CC3)CC2)cc1.Cl.Cl (configuration not stated) | 38.15 | -7.761
Cc1nc(NS(=O)(=O)c2ccc(C)c(Br)c2)no1 | 5.229 | 0.5461
CN1CCN(C(=O)Cn2nc(C(F)(F)F)c(Br)c2C2CC2)CC1 | -4.136 | 8.65
O=C(Cc1ccsc1)N1CCC[C@@H]1Cn1c(=O)oc2ccccc21 | -4.814 | 0.6782
CCc1ccc(CNC(=O)Nc2cc(C)on2)s1 | -45.39 | 4.253
Cc1n[nH]c(C)c1-c1cnc(CC2CCN(C(C)C)CC2)cn1 | 6.372 | -26.72
CC(=O)N1CCCN(C(=O)NCc2cccnc2OC(C)C)CC1 | -11.5 | 12.73
Cc1ccc(N2CCC(N3C[C@@H](CN(C)C)[C@@H](CO)C3)CC2)cc1 | 6.633 | -8.171
COc1c(CNCCNC(=O)c2cccc(C)c2)c(C)nn1C.Cl | 0.1013 | 2.202
[H][C@]12CCN(C(=O)CC(C)C)CC[C@@]1([H])S(=O)(=O)CCN2S(C)(=O)=O | 11 | 6.849
Cc1cnc(N2CCCC(O)C2)nc1-c1ccnn1C (configuration not stated) | -23.64 | 2.615
CS(=O)(=O)Nc1ccn(Cc2ccc(Br)cc2)n1 | -5.059 | 11.52
COc1ccc(CNC(C)Cn2cccn2)cc1OC (configuration not stated) | -37.07 | -7.112
Cc1cc(C)c(CNC(=O)NCc2ccc3c(c2)CCC3)c(=O)[nH]1 | -35.91 | -18.77
COc1cccc(CN(C)Cc2ccccc2C#N)c1OC | -13.1 | -3.637
CS(=O)(=O)N1CCc2c(cccc2NC(=O)NC2CCCC2)C1 | -9.326 | 3.605
O=C(O)C(F)(F)F.[H][C@@]12CN(CC3CCOCC3)C[C@]1([H])C(=O)N(Cc1cccc(F)c1)C2 | -171.1 | -4.713
Cc1nn(C)cc1S(=O)(=O)NCC(c1ccccc1Cl)N1CCCC1 (configuration not stated) | -4.971 | 23.66
CC(C)(O)CCc1cccc(C(=O)NCc2nccs2)c1 | -63.03 | -36.52
CC(C)NC(=O)N1CCCC(Cn2cc(-c3ccc(F)cc3)nn2)C1 (configuration not stated) | 28.63 | 5.23
CC(C)N1CCCc2sc(C(=O)NC3CC3)nc21 | -78.46 | -11.72
CCC(=O)Nc1cccc(OCC(=O)N2CC=CC2C(C)C)c1 (configuration not stated) | -43.85 | 8.168
Cc1ccc(OC2CCN(C(=O)Cc3c(C)[nH]c(=O)[nH]c3=O)CC2)cc1 | -61.58 | 13.68
c1cc(N2CCCC2c2cnccn2)ncn1 (configuration not stated) | 14.35 | -25.46
Cc1cnc(NC(=O)N2CCC(N3CCCCC3=O)CC2)s1 | -11.59 | 1.397
COc1ccc(NC(=O)CCn2nc(-c3cccs3)oc2=O)cc1OC | -20.52 | -8.238
CC(C)n1ncc2c1NC(=O)CSC2C(F)(F)F (configuration not stated) | -34.15 | -31.63
Cc1nc2ccnn2c(C)c1CCC(=O)N1CCN(CCO)CC1 | 6.661 | -6.828
Cc1occc1C(=O)N1CCCN(Cc2cnn(C(C)C)c2)CC1 | -48.92 | -0.7649
COc1cccc(CNc2nc(N3CCOCC3)ns2)c1OC | 6.846 | -0.3409
O=C(NCC1CCC1)c1cccc(CN2CCS(=O)(=O)CC2)c1 | 8.388 | 18.73
O=C(NCCCO)NCCc1cc(F)ccc1F | 44.18 | 8.023
CN(CCc1ccc(F)cc1)Cc1nc2c(cnn2C)c(=O)[nH]1 | 25.1 | -5.461
CC(=O)N1CCN(C(=O)NCc2cccnc2OC(C)C)CC1 | -38.46 | -21.98
COc1ccc(SC(C)C(=O)N2CCC(NC(=O)C3CC3)CC2)cc1 (configuration not stated) | -60.94 | -1.784
CS(=O)(=O)NCC(Cc1cccc(F)c1)N1CCNC1=O (configuration not stated) | -17.72 | -9.015
Cn1nnc2c1C(COCC1CC1)CN(C(=O)Cc1ccsc1)C2 (configuration not stated) | 42.42 | -4.213
O=C(c1ccno1)N1CCC2(CC1)C(=O)Nc1ccccc12 | -140 | -7.557
CC(C)Nc1ncnc2c1CCN(C(=O)[C@H]1CCCO1)CC2 | -76.4 | -8.053
COc1cccc(-c2n[nH]cc2CNC2CCCN(C)C2)c1 (configuration not stated) | -33.85 | 3.045
CC(c1cccc(O)c1)N(C)S(=O)(=O)c1cccnc1 (configuration not stated) | -58.77 | -4.953
CC(C)Cc1ncc2c(n1)CN(C(=O)c1ccc(Cn3ccnc3)o1)C2 | -13.11 | 8.439
Cc1cnc(C(=O)Nc2cc(F)ccc2OCC2CCCO2)cn1 (configuration not stated) | 6.436 | -0.4632
CCC(C)N(Cc1ccncc1)C(=O)CCSC (configuration not stated) | 12.37 | 7.495
Cc1nc2cc(O)nn2c(C)c1CCC(=O)NCCc1nccn1C | -0.9098 | 13.21
Cc1cc2ccccc2n1CCC(=O)NCc1ncc[nH]1 | -33.45 | 8.648
O=C(NCC1(O)CCOC1)NCC1(c2ccccc2Cl)CCC1 (configuration not stated) | - | -5.047
CCc1[nH]ncc1C(=O)N1CCOC(c2nc(C)n[nH]2)C1 (configuration not stated) | -15.36 | 10.92
CCC(=O)N1CCN(c2ncnc3c(C)nn(C)c23)CC1 | -15.23 | 7.071
[H][C@@]12OCCN(S(=O)(=O)C3CC3)[C@@]1([H])CC[C@H]2OCC1CC1 | -19.3 | 29.22
CC(C)C(=O)Nc1cccc(C(=O)Nc2ccccn2)c1 | -7.066 | -3.711
O=C1CC[C@@H](CN(Cc2ccncc2)Cc2nc(-c3cccs3)no2)N1 | 24.06 | -13.48
CC(C)CNC(=O)c1ccc2c(=O)n(-c3ccccc3)cnc2c1 | -27.61 | 3.869
Cc1ncc(Cl)c(C(=O)N2CCCC(n3nc(C)nc3C)C2)n1 (configuration not stated) | - | 3.784
COC(C)(C)C(=O)N1Cc2cnc(C(C)(C)C)nc2C1 | -166.1 | -0.9202
Cn1cc(CC(=O)N2CCOC(c3nc(C(C)(C)C)n[nH]3)C2)cn1 (configuration not stated) | -22.28 | -1.264
CCC(CN1CCCC1)NC(=O)C1(c2cccc(F)c2)CC1.O=C(O)CC(O)(CC(=O)O)C(=O)O (configuration not stated) | 34.79 | 27.21
CNC(=O)CS(=O)(=O)C1CCN(S(=O)(=O)c2ccccc2Cl)CC1 | -24.51 | -6.109
Cc1nc2c(c(C)c1CC(=O)NCc1ccccc1F)c(=O)[nH]n2C | - | 1.354
CCN(CC)c1ncnc2c(C)nn(CC)c12 | -31.5 | -6.156
Cc1ccccc1CNC(C)c1ccc(OCC(=O)NC2CC2)cc1 (configuration not stated) | -10.34 | 9.488
Cc1cc(C(=O)NCc2ccc(N3CCN(C)CC3)nc2)c(C)s1 | - | -6.387
Cc1cc(N(C)CCOc2ccccc2F)nc(N)n1 | 20.68 | -0.918
COC(C)c1noc(CN(C)c2ncc(Br)cn2)n1 (configuration not stated) | -5.057 | -2.185
CCN(C)Cc1cnc(S(=O)(=O)CC)n1CCOC | -13.42 | -6.066
O=C(O)C(F)(F)F.O=C(O)C(F)(F)F.[H][C@@]12COC[C@]1(COc1ccccn1)CN(c1cc(OC)ncn1)C2 | -11.8 | -4.499
c1ccc(NCc2ccsc2)c(Cn2cncn2)c1 | -7.077 | 11.28

Some entries from above, unchanged:

| structure | T. brucei | Toxoplasma |
|---|---|---|
| `O=C(O)C(F)(F)F.O=C(O)C(F)(F)F.[H][C@@]12COC[C@]1(COc1ccccn1)CN(c1cc(OC)ncn1)C2` | -11.8 | -4.499 |
| `CC(=O)N1CCCN(C(=O)NCc2cccnc2OC(C)C)CC1` | -11.5 | 12.73 |
| `COc1cccc(-c2n[nH]cc2CNC2CCCN(C)C2)c1` (configuration not stated) | -33.85 | 3.045 |
| `CCC(C)N(Cc1ccncc1)C(=O)CCSC` (configuration not stated) | 12.37 | 7.495 |
| `CN(CCc1ccc(F)cc1)Cc1nc2c(cnn2C)c(=O)[nH]1` | 25.1 | -5.461 |